Measurements published in US8334235B2, “Thiadiazolyloxyphenylamidines and use thereof as fungicides” (Bayer Cropscience AG, priority 2008, dated 2012).
Some of these results come from one statement about several compounds together.

How the values were obtained:
Assay type in all cases: in vivo
Sphaerotheca fuliginea = assay: Sphaerotheca test (cucumber)/protective; settings: 500 ppm active substance, protective, evaluation 7 days after inoculation
Experimental: • Solvent: 49 parts by weight of N,N-dimethylformamide • Emulsifier: 1 part by weight of alkylaryl polyglycol ether (polyoxyethylene (16) tristearylphenyl ether) To prepare a suitable active substance composition, 1 part by weight of active substance is mixed with the given amounts of solvents and emulsifier and the concentrate is diluted to the desired concentration using water. For the testing of protective effectiveness, young cucumber plants are sprayed with the active substance composition in the application rate given. One day after treatment, the plants are inoculated with a suspension of spores of Sphaerotheca fuliginea. The plants are then placed in a greenhouse at 70% relative humidity and a temperature of 23° C. Evaluation is carried out 7 days after the inoculation. In this connection, 0% means a degree of effectiveness corresponding to that of the control, while a degree of effectiveness of 100% means that no infestation is observed.

Phakopsora pachyrhizi = assay: Phakopsora test (soya)/protective; settings: 100 ppm active substance, protective, evaluation 11 days after inoculation
[1] = tested on: larvae of the mustard beetle (Phaedon cochleariae); assay: Phaedon test (PHAECO spray treatment); settings: application rate 500 g/ha, Chinese cabbage leaf discs, after 7 days

Row | SMILES | degree of effectiveness (Phakopsora pachyrhizi) [%] | other results
1 | Cc1cc(N=CN(C)C(C)C)c(Cl)cc1Oc1nc(/C=C/c2ccc(F)cc2)ns1 [Compound 23] |  | degree of effectiveness (Sphaerotheca fuliginea): ≥ 70%
2 | CCN(C)/C=N/c1cc(C)c(Oc2nc(C(C)(C)C)ns2)cc1Br [Compound 2, N′-{2-bromo-4-[(3-(tert-butyl)-1,2,4-thiadiazol-5-yl)oxy]-5-methylphenyl}-N-ethyl-N-methylimidoformamide] | ≥ 80 | 
3 | CCN(C)/C=N/c1cc(C)c(Oc2nc(Cc3ccccc3)ns2)cc1Cl [Compound 14, N′-{4-[(3-benzyl-1,2,4-thiadiazol-5-yl)oxy]-2-chloro-5-methylphenyl}-N-ethyl-N-methylimidoformamide] | ≥ 80 | 
4 | CCN(C)C=Nc1cc(C)c(Oc2nc(C3(C)CC3(Cl)Cl)ns2)cc1Cl (centres unmarked) [Compound 32, N′-(2-chloro-4-{[3-(2,2-dichloro-1-methylcyclopropyl)-1,2,4-thiadiazol-5-yl]oxy}-5-methylphenyl)-N-ethyl-N-methylimidoformamide] | ≥ 80 | 
5 | Cc1cc(/N=C/N2CCCCC2)c(Cl)cc1Oc1nc([C@@H]2C[C@H]2c2ccccc2)ns1 (relative stereo) [Compound 30, rel-2-chloro-5-methyl-4-{3-[(1R,2R)-2-phenylcyclopropyl]-1,2,4-thiadiazol-5-yl}oxy)-N-[(E)-piperidin-1-ylmethylidene]aniline] |  | degree of effectiveness (Sphaerotheca fuliginea): ≥ 70%
6 | CCN(C)/C=N/c1cc(C)c(Oc2nc(C(C)(C)C)ns2)cc1Cl [Compound 1, N′-{4-[(3-(tert-butyl)-1,2,4-thiadiazol-5-yl)oxy]-2-chloro-5-methylphenyl}-N-ethyl-N-methylimidoformamide] | ≥ 80 | 
7 | Cc1cc(N=CN(C)C(C)C)c(Cl)cc1Oc1nc(C(C)c2ccc(Cl)cc2)ns1 (centres unmarked) [Compound 8, N′-[2-chloro-4-({3-[1-(4-chlorophenyl)ethyl]-1,2,4-thiadiazol-5-yl}oxy)-5-methylphenyl]-N-methyl-N-(propan-2-yl)imidoformamide] |  | effectiveness (beetle larvae killed) [1]: ≥ 80%
8 | CCN(C)C=Nc1cc(C)c(Oc2nc(C3(Cl)CC3)ns2)cc1Cl [Compound 3, N′-(2-chloro-4-{[3-(1-chlorocyclopropyl)-1,2,4-thiadiazol-5-yl]oxy}-5-methylphenyl)-N-ethyl-N-methylimidoformamide] |  | effectiveness (beetle larvae killed) [1]: ≥ 80%
